Drawing on paper PMC5337621, this text covers binding for four molecules.

Amino acid sequences for entries named in this document (tags omitted).
UniProt O15392: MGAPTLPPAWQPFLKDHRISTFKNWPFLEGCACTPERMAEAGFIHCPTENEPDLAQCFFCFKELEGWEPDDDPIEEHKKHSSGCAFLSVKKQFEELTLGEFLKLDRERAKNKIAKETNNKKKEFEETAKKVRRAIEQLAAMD

One assay deals with T1, Flag-tagged FBXL7 (UniProt Q9UJT9).
T1 sequence: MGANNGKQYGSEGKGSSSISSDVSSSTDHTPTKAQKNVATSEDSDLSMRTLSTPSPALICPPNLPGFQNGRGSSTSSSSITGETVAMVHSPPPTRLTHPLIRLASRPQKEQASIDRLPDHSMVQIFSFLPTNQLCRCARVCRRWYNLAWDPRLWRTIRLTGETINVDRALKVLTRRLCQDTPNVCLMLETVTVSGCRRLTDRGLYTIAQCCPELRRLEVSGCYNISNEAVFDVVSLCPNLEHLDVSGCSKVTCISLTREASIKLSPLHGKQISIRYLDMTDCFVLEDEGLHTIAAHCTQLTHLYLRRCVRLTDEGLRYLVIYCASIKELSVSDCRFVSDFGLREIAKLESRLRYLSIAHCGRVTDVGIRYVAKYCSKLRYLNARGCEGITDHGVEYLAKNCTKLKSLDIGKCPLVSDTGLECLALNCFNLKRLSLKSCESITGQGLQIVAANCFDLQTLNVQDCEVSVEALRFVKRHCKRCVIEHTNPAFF
Put plainly: co-IP; HEK293T cells co-transfected with Flag-tagged FBXL7 and His-tagged Survivin, 24 h; lysed in co-IP buffer; immunoprecipitation with rabbit Flag, His and control IgG antibodies; western blot. (Immunoblotting shows a protein as a band on a membrane.)

Assay [1] concerns the target His-tagged Survivin (human) (UniProt O15392). The description is as above.
The target in another assay is T2, His-tagged FOXP1 (UniProt Q9H334).
T2 sequence: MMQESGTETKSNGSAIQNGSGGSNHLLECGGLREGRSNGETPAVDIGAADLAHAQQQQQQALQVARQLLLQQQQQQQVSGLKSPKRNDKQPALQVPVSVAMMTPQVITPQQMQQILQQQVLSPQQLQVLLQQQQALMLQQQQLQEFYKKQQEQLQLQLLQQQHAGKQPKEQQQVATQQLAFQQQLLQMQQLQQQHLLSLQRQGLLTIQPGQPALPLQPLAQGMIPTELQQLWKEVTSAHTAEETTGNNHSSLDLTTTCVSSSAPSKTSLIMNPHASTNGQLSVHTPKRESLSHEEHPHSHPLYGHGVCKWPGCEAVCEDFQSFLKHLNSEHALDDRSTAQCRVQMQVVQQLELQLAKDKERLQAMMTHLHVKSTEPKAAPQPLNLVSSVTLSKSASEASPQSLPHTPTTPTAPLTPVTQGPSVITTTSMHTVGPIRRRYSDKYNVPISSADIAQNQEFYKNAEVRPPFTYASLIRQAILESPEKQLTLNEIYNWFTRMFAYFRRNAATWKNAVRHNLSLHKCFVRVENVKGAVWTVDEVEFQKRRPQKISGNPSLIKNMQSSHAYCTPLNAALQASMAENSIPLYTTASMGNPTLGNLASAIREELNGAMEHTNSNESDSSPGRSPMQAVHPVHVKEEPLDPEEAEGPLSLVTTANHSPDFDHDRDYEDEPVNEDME
The assay can be described thus: co-IP; HEK293T cells transfected with His-tagged FOXP1 and AURKA plasmids; whole-cell lysates immunoprecipitated with control IgG, His and AURKA antibodies; immunoblot.

Assay [2] deals with T3, Aurora kinase A (AURKA) (human) (UniProt O14965).
T3 sequence: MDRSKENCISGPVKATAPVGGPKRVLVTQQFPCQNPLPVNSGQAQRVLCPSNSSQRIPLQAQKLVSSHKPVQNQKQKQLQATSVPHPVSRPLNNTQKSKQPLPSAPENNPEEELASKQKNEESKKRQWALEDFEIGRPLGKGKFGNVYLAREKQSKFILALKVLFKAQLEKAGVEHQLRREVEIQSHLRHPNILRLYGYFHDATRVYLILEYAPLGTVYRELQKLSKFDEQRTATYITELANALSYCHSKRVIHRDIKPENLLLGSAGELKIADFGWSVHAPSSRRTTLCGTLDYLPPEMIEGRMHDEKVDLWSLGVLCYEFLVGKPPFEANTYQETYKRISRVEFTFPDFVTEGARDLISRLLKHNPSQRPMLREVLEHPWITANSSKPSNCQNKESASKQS
The description is as above.

Results are given in words; binding and its absence hold for the method and conditions named. Binding seen in cells or lysates may run through a third protein. Some results given as binding are weak or reduced against the parent protein; the word gives no strength. Tags and fused reporters may be left off the sequences shown.

On to “His-tagged Survivin (from UniProt O15392 1-142)”, for which, in the assay with Flag-tagged FBXL7, the binding entry was “binds”.

B1: Flag-tagged FBXL7 (protein, UniProt Q9UJT9 1-491)
chain: MGANNGKQYGSEGKGSSSISSDVSSSTDHTPTKAQKNVATSEDSDLSMRTLSTPSPALICPPNLPGFQNGRGSSTSSSSITGETVAMVHSPPPTRLTHPLIRLASRPQKEQASIDRLPDHSMVQIFSFLPTNQLCRCARVCRRWYNLAWDPRLWRTIRLTGETINVDRALKVLTRRLCQDTPNVCLMLETVTVSGCRRLTDRGLYTIAQCCPELRRLEVSGCYNISNEAVFDVVSLCPNLEHLDVSGCSKVTCISLTREASIKLSPLHGKQISIRYLDMTDCFVLEDEGLHTIAAHCTQLTHLYLRRCVRLTDEGLRYLVIYCASIKELSVSDCRFVSDFGLREIAKLESRLRYLSIAHCGRVTDVGIRYVAKYCSKLRYLNARGCEGITDHGVEYLAKNCTKLKSLDIGKCPLVSDTGLECLALNCFNLKRLSLKSCESITGQGLQIVAANCFDLQTLNVQDCEVSVEALRFVKRHCKRCVIEHTNPAFF
For B1, the binding result in assay [1] is “binds”.

B2: Aurora kinase A (AURKA) (protein, UniProt O14965 1-403)
chain: MDRSKENCISGPVKATAPVGGPKRVLVTQQFPCQNPLPVNSGQAQRVLCPSNSSQRIPLQAQKLVSSHKPVQNQKQKQLQATSVPHPVSRPLNNTQKSKQPLPSAPENNPEEELASKQKNEESKKRQWALEDFEIGRPLGKGKFGNVYLAREKQSKFILALKVLFKAQLEKAGVEHQLRREVEIQSHLRHPNILRLYGYFHDATRVYLILEYAPLGTVYRELQKLSKFDEQRTATYITELANALSYCHSKRVIHRDIKPENLLLGSAGELKIADFGWSVHAPSSRRTTLCGTLDYLPPEMIEGRMHDEKVDLWSLGVLCYEFLVGKPPFEANTYQETYKRISRVEFTFPDFVTEGARDLISRLLKHNPSQRPMLREVLEHPWITANSSKPSNCQNKESASKQS
B2: in the assay with His-tagged FOXP1, the binding entry is “binds”.

B3: His-tagged FOXP1 (protein, UniProt Q9H334 1-677)
chain: MMQESGTETKSNGSAIQNGSGGSNHLLECGGLREGRSNGETPAVDIGAADLAHAQQQQQQALQVARQLLLQQQQQQQVSGLKSPKRNDKQPALQVPVSVAMMTPQVITPQQMQQILQQQVLSPQQLQVLLQQQQALMLQQQQLQEFYKKQQEQLQLQLLQQQHAGKQPKEQQQVATQQLAFQQQLLQMQQLQQQHLLSLQRQGLLTIQPGQPALPLQPLAQGMIPTELQQLWKEVTSAHTAEETTGNNHSSLDLTTTCVSSSAPSKTSLIMNPHASTNGQLSVHTPKRESLSHEEHPHSHPLYGHGVCKWPGCEAVCEDFQSFLKHLNSEHALDDRSTAQCRVQMQVVQQLELQLAKDKERLQAMMTHLHVKSTEPKAAPQPLNLVSSVTLSKSASEASPQSLPHTPTTPTAPLTPVTQGPSVITTTSMHTVGPIRRRYSDKYNVPISSADIAQNQEFYKNAEVRPPFTYASLIRQAILESPEKQLTLNEIYNWFTRMFAYFRRNAATWKNAVRHNLSLHKCFVRVENVKGAVWTVDEVEFQKRRPQKISGNPSLIKNMQSSHAYCTPLNAALQASMAENSIPLYTTASMGNPTLGNLASAIREELNGAMEHTNSNESDSSPGRSPMQAVHPVHVKEEPLDPEEAEGPLSLVTTANHSPDFDHDRDYEDEPVNEDME
For the molecule B3, in assay [2], the binding result is on record as “binds”.
